Reference: PubChem BioAssay AID2685 (National Center for Advancing Translational Sciences (NCATS), 2010)
The list shows a part of the results. The main result of the screen is listed elsewhere. These columns were measured beside it and carry no call. Most of these compounds were active or inconclusive in the main read-out, so they are no random draw. The note in brackets gives the kind of curve behind each potency; many fits are weak.

Assay: qHTS Assay for Lipid Storage Modulators in Drosophila S3 Cells;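 as to cell number change: cells counted by Cell Tracker Red CMTPX staining in the red channel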
Conditions: BODIPY lipid droplet fluorescence, 18-24 h; for cell number change: measured here: cell count max response, cells fed with added oleic acid
Summary of the method: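 Laser-scanning cytometry quantifies lipid droplet accumulation (500–530 nm total intensity; droplet/cell object ratio) in oleic acid-fed (400 uM added) Drosophila S3 cells treated with a concentration series. 20 uM Triacsin C defined 100% inhibition.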

[1] = measured here: lipid fluorescence (Fed channel) AC50, cells fed with added oleic acid
[2] = measured here: cell number channel AC50, cells fed with added oleic acid

| SMILES | cell number change | AC50 [1] | AC50 [2] |
| --- | --- | --- | --- |
| Cc1cc(C)cc(OCC(=O)NNC(=O)c2ccccn2)c1 | 5.49% | 8.2 µM [falling, partial curve] | – |
| CC(C)(C)c1ccc(C(=O)NCCC(=O)Nc2ccc3c(c2)OCCO3)cc1 | -11.3% | – | – |
| O=C(C1CC1)N1CCc2cc(S(=O)(=O)NCc3ccccc3)ccc21 | -27.2% | 4.11 µM [falling, full curve] | – |
| COc1ccc(N2CC(C(=O)N/N=C/c3ccc(C)cc3)CC2=O)cc1 (stereo unspecified) | 20.8% | – | 6.51 µM [falling, single point] |
| N#Cc1c(N)n(-c2ccccc2)c(=O)c2cc([N+](=O)[O-])ccc12 | 98.4% | – | 2.06 µM [falling, partial curve] |
| O=C1CCN(CCc2ccccc2)CCN1[C@H](COc1ccccc1)c1ccccc1 | 9.06% | 29.1 µM [falling, single point] | – |
| O=C(COC(=O)/C=C/c1ccc2ccccc2n1)NNC(=O)c1ccc([N+](=O)[O-])cc1 | – | – | 6.51 µM [falling, single point] |
| O=C(NCCNC(=O)c1ccccc1Br)c1cccnc1 | 9.94% | 29.1 µM [rising, single point] | – |
| COc1ccccc1CNC(=O)C1CCN(S(C)(=O)=O)CC1 | 6.89% | 0.731 µM [rising, single point] | – |
| CCCC(=O)N(CCN1CCOCC1)c1nc2c(C)ccc(C)c2s1 | -19.4% | 5.8 µM [rising, single point] | – |
| Cc1nc2ccccc2n1CCN1CCOCC1 | 5.01% | – | – |
| OC(c1ccccc1)(c1ccccc1)C1CCN(C(=S)NC2CCCC2)CC1 | -8.46% | – | 0.13 µM [falling, full curve, poor fit] |
| COCCOc1ccc(C(F)(F)F)cc1Nc1nc2ccccc2o1 | 15% | 2.91 µM [rising, partial curve] | – |
| COc1ccc(C(=O)NCCN2CCCC2)cc1 | 7.41% | 29.1 µM [rising, single point] | – |
| CCN(CC)S(=O)(=O)c1ccc2[nH]c(=O)cc(C(=O)Nc3ccccc3N3CCOCC3)c2c1 | -35.6% | – | 0.0461 µM [falling, full curve] |
| COc1ccc(N/C=C2\CCOC2=O)cc1 | -7.36% | 0.058 µM [falling, full curve] | – |
| CC(NC(=O)c1ccco1)c1ccc2c(c1)OCO2 (stereo unspecified) | 6.49% | 16.4 µM [falling, single point] | – |
| COc1ccc(Nc2nc3c([nH]2)c(=O)[nH]c(=O)n3C)cc1 | -6.02% | 0.291 µM [falling, full curve, poor fit] | – |
| COc1ccc(C(=O)N2CCCC(c3nc(-c4ccc(C)o4)no3)C2)cc1OC (stereo unspecified) | 8.97% | 6.51 µM [rising, single point] | – |
| CN(CC(=O)NCc1ccc2c(c1)OCO2)S(=O)(=O)c1ccc(Br)s1 | 33.8% | 8.2 µM [rising, partial curve] | 0.206 µM [rising, full curve, poor fit] |
| Cc1ccc(CC(=O)Nc2ccncc2)cc1 | -60.4% | 29.1 µM [falling, single point] | 8.2 µM [falling, partial curve] |

| SMILES | cell number change | AC50 [1] | AC50 [2] |
| --- | --- | --- | --- |
| COc1cc(S(=O)(=O)n2nc(C)cc2C)ccc1Cl | 16.6% | 2.06 µM [rising, partial curve, poor fit] | – |
| Cc1ccc(-n2c3nc(=O)[nH]c(=O)c-3cc3cc([N+](=O)[O-])ccc32)cc1C | -24.3% | 2.59 µM [falling, full curve] | – |
| O=C(CS(=O)(=O)c1ccc(F)cc1)NCCS(=O)(=O)c1ccccc1 | -26.4% | 1.84 µM [rising, partial curve] | – |
| Cc1cc2cc(C)c3nnc(SCC(=O)Nc4ccc(S(=O)(=O)N5CCCCC5)cc4)n3c2cc1C | -15.4% | 8.2 µM [falling, partial curve] | – |
| N#CC1(NC(=O)CN2CCN(S(=O)(=O)c3ccccc3F)CC2)CCCC1 | 2.34% | 29.1 µM [rising, single point] | – |
| Cc1ccc(CN2C3=NCCN3c3ccccc32)cc1 | -7.01% | 0.00517 µM [falling, full curve, poor fit] | – |
| OCC12COC(c3ccccc3)N1C(c1ccccc1)OC2 (stereo unspecified) | -9.74% | 32.6 µM [rising, single point] | – |
| CCOc1ccc(CC(=O)NCCc2cnc[nH]2)cc1 | 14.2% | – | – |
| O=C(CSc1nnc(Cc2cc(=O)[nH]c(=O)[nH]2)n1-c1ccc(Cl)cc1)NC1CCCC1 | 9.65% | – | – |
| Cc1cccc(NS(=O)(=O)c2nnc(NC(=O)c3ccc(C)c(C)c3)s2)c1 | 5.39% | 6.51 µM [rising, partial curve, poor fit] | – |
| CCCCn1nnnc1SCC(=O)NCc1ccco1 | – | 11.6 µM [falling, partial curve] | – |
| Cc1nnc(OCC(=O)NCCC2=CCCCC2)c2ccccc12 | 50% | – | 0.0259 µM [rising, full curve] |
| CCOC(=O)c1sc2nc(C)nc(NC3CCC(O)CC3)c2c1C (stereo unspecified) | -4.5% | 0.58 µM [falling, single point] | – |
| COc1ccccc1-n1nnnc1SCC(=O)NC(=O)Cc1ccccc1 | -46% | – | 29.1 µM [falling, single point] |
| Cc1ccc(-c2nnc(OCCN3CCOCC3)c3ccccc23)cc1 | -3.22% | 29.1 µM [rising, single point] | – |
| O=C(OC(c1ccccc1)c1nccc2ccccc12)c1cc([N+](=O)[O-])cc([N+](=O)[O-])c1 (stereo unspecified) | 10.8% | 0.103 µM [rising, full curve] | – |
| O=C(N/N=C/c1ccc(OC(=O)c2cccc(Br)c2)cc1)c1cccnc1 | 20.5% | – | – |
| O/N=C/c1ccc(OCc2ccccc2)c(Br)c1 | 5.51% | 1.84 µM [rising, partial curve, poor fit] | – |
| COc1ccccc1C(=O)N/C(=C\c1ccc(Br)cc1)C(=O)N1CCCC1 | 10.8% | – | – |
| O=C(COC(=O)CC(c1ccccc1)c1ccccc1)NCc1ccc(Cl)cc1 | -25.8% | 2.91 µM [falling, partial curve, poor fit] | 3.66 µM [falling, single point] |
| O=C(CCN1CCCCCC1)Nc1ccc(F)c(F)c1 | 7.62% | – | – |

Whole records as entered above. Order of values: cell number change | AC50 [1] | AC50 [2]
CCOc1ccc(CC(=O)NCCc2cnc[nH]2)cc1 is listed as 14.2% | – | –
N#CC1(NC(=O)CN2CCN(S(=O)(=O)c3ccccc3F)CC2)CCCC1 is listed as 2.34% | 29.1 µM [rising, single point] | –

Further structures follow:

| SMILES | cell number change | AC50 [1] | AC50 [2] |
| --- | --- | --- | --- |
| CC(C)Oc1ccc(/C(O)=C2/C(=O)C(=O)N(CCN3CCOCC3)C2c2ccccc2)cc1 (stereo unspecified) | – | – | 6.51 µM [falling, partial curve, poor fit] |
| Cc1cccc(OCC(=O)NNS(=O)(=O)c2ccccc2F)c1 | 20.9% | 18.4 µM [rising, partial curve] | 6.51 µM [rising, partial curve] |
| O=C1C2C3CC(C(Br)C3Br)C2C(=O)N1CC1CCCO1 (stereo unspecified) | – | 0.164 µM [falling, full curve] | – |
| O=C(Nc1ccccc1)c1ccccc1OCc1cccc([N+](=O)[O-])c1 | 12.2% | 0.651 µM [rising, partial curve] | – |
| CCOc1ccc(C2C(C(=O)Nc3ccc(F)cc3)=C(C)Nc3nc(CCCO)nn32)cc1 (stereo unspecified) | -25.4% | 2.91 µM [falling, single point] | – |
| O=C(COc1ccccc1O)c1cccs1 | 3.13% | 29.1 µM [falling, single point] | – |
| CC[C@@]12C(=O)N(c3ccc(OC)cc3)C(=O)N1[C@H](c1ccc(Cl)cc1)[C@@H]1C(=O)N(C3CCCCC3)C(=O)[C@@H]12 | 32% | – | 16.4 µM [rising, partial curve, poor fit] |
| O=C(O)CSc1nnc(CNc2ccccc2Cl)n1-c1ccccc1 | -7.74% | 23.1 µM [falling, partial curve] | – |
| O=C(c1cc2nc(-c3ccco3)cc(C(F)(F)F)n2n1)N1CCN(Cc2ccccc2)CC1 | -0.54% | 0.651 µM [falling, single point] | – |
| CC(C)(C)NC(=S)NC(=O)C12CC3CCC(CC(C3)C1)C2 | -33.8% | 16.4 µM [falling, single point] | 29.1 µM [falling, single point] |
| CCO/C=C1/C(=O)N(CC)c2ccccc21 | -20.3% | 0.411 µM [falling, full curve] | – |
| O=C(/C=C/c1ccc2c(c1)OCO2)Nc1nc(-c2ccc(F)cc2)cs1 | – | 2.59 µM [rising, partial curve] | – |
| c1ccc(-c2nnnn2-c2ccccc2)cc1 | 6.67% | – | – |
| Cc1nc(C(=O)Nc2ccccc2)sc1C1(C)CC(c2cccnc2)=NO1 (stereo unspecified) | 14.4% | 0.92 µM [rising, full curve] | – |
| Cc1ccc(S(=O)(=O)N(C)C(C)CCc2ccco2)cc1 (stereo unspecified) | -6.22% | 1.64 µM [rising, single point] | – |
| CS(=O)(=O)N(CC(=O)NC1CCCCCC1)Cc1ccccc1 | 1.04% | 3.66 µM [falling, partial curve] | – |
| CCOc1ccc(C2C(C#N)=C(N)Oc3cc(C)n(Cc4ccco4)c(=O)c32)cc1OC (stereo unspecified) | 4.26% | 1.16 µM [rising, full curve] | – |
| COc1ccc(C2(C)NC(=O)N(CC3CCCCC3)C2=O)cc1 (stereo unspecified) | – | – | 6.51 µM [rising, single point] |
| COc1c(S(=O)(=O)NCCN2CCOCC2)ccc(Cl)c1Cl | -4.57% | – | 1.03 µM [falling, full curve, poor fit] |
| O=c1c2ccccc2nc(/C=C/c2ccc(O)cc2)n1CCc1ccccc1 | – | – | 6.51 µM [rising, single point] |
| CC1(CCc2ccccc2)NC(=S)N(c2ccc(Cl)cc2)N1 (stereo unspecified) | 6.51% | 25.9 µM [rising, partial curve, poor fit] | – |
